Source: publication PMC11650987
Results are given in words; binding and its absence hold for the method and conditions named. Binding seen in cells or lysates may run through a third protein. A yes stands for co-enrichment or nearness to the bait. Other partners may have been found.

Biological target: HBx-TurboID fusion protein (FLAG-HBx-Turbo) (hepatitis B virus (strain B200, genotype B))
Test: proximity labelling; TurboID: Huh7 cells transfected with pFLAG-HBx-Turbo compared with pFLAG-Turbo, 50 µM biotin for 30 min, RIPA lysis, biotinylated proteins captured on streptavidin Dynabeads, LC-MS/MS, MaxQuant iBAQ

B1: valosin-containing protein-interacting protein 1 (VCPIP1), endogenous (enzyme, UniProt Q96JH7 1-1222)
chain: MSQPPPPPPPLPPPPPPPEAPQTPSSLASAAASGGLLKRRDRRILSGSCPDPKCQARLFFPASGSVSIECTECGQRHEQQQLLGVEEVTDPDVVLHNLLRNALLGVTGAPKKNTELVKVMGLSNYHCKLLSPILARYGMDKQTGRAKLLRDMNQGELFDCALLGDRAFLIEPEHVNTVGYGKDRSGSLLYLHDTLEDIKRANKSQECLIPVHVDGDGHCLVHAVSRALVGRELFWHALRENLKQHFQQHLARYQALFHDFIDAAEWEDIINECDPLFVPPEGVPLGLRNIHIFGLANVLHRPIILLDSLSGMRSSGDYSATFLPGLIPAEKCTGKDGHLNKPICIAWSSSGRNHYIPLVGIKGAALPKLPMNLLPKAWGVPQDLIKKYIKLEEDGGCVIGGDRSLQDKYLLRLVAAMEEVFMDKHGIHPSLVADVHQYFYRRTGVIGVQPEEVTAAAKKAVMDNRLHKCLLCGALSELHVPPEWLAPGGKLYNLAKSTHGQLRTDKNYSFPLNNLVCSYDSVKDVLVPDYGMSNLTACNWCHGTSVRKVRGDGSIVYLDGDRTNSRSTGGKCGCGFKHFWDGKEYDNLPEAFPITLEWGGRVVRETVYWFQYESDSSLNSNVYDVAMKLVTKHFPGEFGSEILVQKVVHTILHQTAKKNPDDYTPVNIDGAHAQRVGDVQGQESESQLPTKIILTGQKTKTLHKEELNMSKTERTIQQNITEQASVMQKRKTEKLKQEQKGQPRTVSPSTIRDGPSSAPATPTKAPYSPTTSKEKKIRITTNDGRQSMVTLKSSTTFFELQESIAREFNIPPYLQCIRYGFPPKELMPPQAGMEKEPVPLQHGDRITIEILKSKAEGGQSAAAHSAHTVKQEDIAVTGKLSSKELQEQAEKEMYSLCLLATLMGEDVWSYAKGLPHMFQQGGVFYSIMKKTMGMADGKHCTFPHLPGKTFVYNASEDRLELCVDAAGHFPIGPDVEDLVKEAVSQVRAEATTRSRESSPSHGLLKLGSGGVVKKKSEQLHNVTAFQGKGHSLGTASGNPHLDPRARETSVVRKHNTGTDFSNSSTKTEPSVFTASSSNSELIRIAPGVVTMRDGRQLDPDLVEAQRKKLQEMVSSIQASMDRHLRDQSTEQSPSDLPQRKTEVVSSSAKSGSLQTGLPESFPLTGGTENLNTETTDGCVADALGAAFATRSKAQRGNSVEELEEMDSQDAEMTNTTEPMDHS
Question: For B1, which binding is on record?
Answer: binds
